# Laboratory results taken from PubChem BioAssay AID1347076 (National Center for Advancing Translational Sciences (NCATS), 2019).
# Hit rate of the full screen: of about 400,000 compounds, about 13,000 (3.2%) were called active. The inconclusive results got no clear call from the source; some entries with a clear call stand among them for comparison. Calls come from the whole dose curve; as a rule, active = well fitted cell-killing curve with a large enough effect; inconclusive = small, poorly fitted or top-dose-only effect, or effect the other way; inactive = flat fitted curve, though single readings scatter. Potencies beside an inconclusive call are fits to weak or partial responses and may not hold up.
# Experiment: qHTS assay for MDR1-selective chemotherapeutics: Primary screen using the drug-selected MDR subline cells KB-V1; note: nearly all actives have a fitted effect of over 60% in size
# Conditions: KB-V1 MDR cells viability, CellTiter-Glo, 72 h; activity change, negative = cytotoxicity: at 46.1 µM (top of the series)
# Summary of the method: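 Potencies derive from concentration-effect curves fitted to normalized luminescence (CellTiter-Glo) of KB-V1 cells treated for 72 h at 37 degrees C in phenol-red-free DMEM containing 10% FBS.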
# % is set by controls: 0 for no effect and ±100 for the full control effect; potency is the fitted concentration of half-maximal effect.
Compound,Potency,"activity change, negative = cytotoxicity"
CCc1ccc(CNc2ccc3c(c2)ncn3CC)cc1,"inconclusive: 13 µM [cytotoxic, single point]",
Cc1cccc(NC(=O)Nc2ccc(F)cc2)n1,"inconclusive: 16.4 µM [cytotoxic, single point]",
C=CCn1c(SCc2ccc(C(=O)Nc3nccs3)cc2)nnc1-c1ccc(C)c(Cl)c1,active: 5.17 µM,
NC(CO)c1csc(NC(=O)Nc2cccc(Cl)c2)n1 (stereo unspecified),,inactive: -12.2%
c1ccc(-c2nnc(-c3ccco3)o2)cc1,,inactive: 13%
COc1ccc(-c2[nH][nH]c(=O)c2NC(=O)c2ccccn2)cc1,"inconclusive: 14.6 µM [cytotoxic, partial curve]",
CC(=O)c1c(C)[nH]c(C(=O)OCCOc2ccccc2)c1C,active: 6.51 µM,
CCCCN(C)CCNC(=O)c1ccc(Cn2c(=O)[nH]c3cc(OC)c(OC)cc3c2=O)cc1,,inconclusive: 42.3%
O=C(Nn1c(C2CCCCC2)nc2ccccc2c1=O)c1ccc(Cl)c([N+](=O)[O-])c1,,inactive: -12.6%
CCCCCCCC/C=C\CCCCCCCC(=O)NCCc1ccc(O)c(O)c1,"inconclusive: 23.1 µM [cytotoxic, single point]",
Cc1ccc(CSC2=CS(=O)(=O)c3ccccc3N2)cc1,"inconclusive: 20.6 µM [cytotoxic, partial curve, poor fit]",
O=C(NC1CCCCC1)c1n[nH]c2c1CCCCC2,,inactive: -26.4%
COc1ccc(N2CCN(C(=O)Cc3ccc(Br)cc3)CC2)cc1,active: 20.6 µM,
COc1ccc(NC(=O)Nc2ccon2)c(OC)c1,"inconclusive: 25.9 µM [rising, single point]",
COc1cc(/C=N/Nc2nc(C)cc(=O)[nH]2)ccc1O,"inconclusive: 29.1 µM [rising, single point]",
CCN(CC(=O)Nc1cc(Cl)ccc1C)C(=O)c1nc2nc(C)cc(C)n2n1,,inactive: -76.6%
COc1ccc(NC2CCCN(C(=O)CCc3cccc(F)c3)C2)cc1 (stereo unspecified),"inconclusive: 20.6 µM [cytotoxic, single point]",
CC(=O)Nc1ccc(NC(=O)Nc2ccccc2)cc1,"inconclusive: 29.1 µM [rising, single point]",
CCc1ccc(CNC(=O)c2ccc3c(Cl)c4c(nc3c2)CCCC4)cc1,,inactive: -20.8%
COc1ccc([C@H]2C[C@H](O)C[C@@H](CCn3cc(-c4ccccc4)nn3)O2)cc1,"inconclusive: 14.6 µM [cytotoxic, partial curve]",
Cc1cc(C(F)(F)F)c(C#N)c(SCC(=O)Nc2nc3ccccc3s2)n1,"inconclusive: 9.2 µM [cytotoxic, partial curve]",

# Copied from the list:
# activity change, negative = cytotoxicity, c1ccc(-c2nnc(-c3ccco3)o2)cc1 is entered as inactive: 13%
# activity change, negative = cytotoxicity, O=C(NC1CCCCC1)c1n[nH]c2c1CCCCC2 is entered as inactive: -26.4%
